Among the data in paper PMC9632790 are binding values, retold here.

The chains behind the UniProt entries cited, without tags or fusion partners. Where a name states a change or a piece, a line headed by the entry shows the natural chain unless it says otherwise.
UniProt A0A0H3C6I0: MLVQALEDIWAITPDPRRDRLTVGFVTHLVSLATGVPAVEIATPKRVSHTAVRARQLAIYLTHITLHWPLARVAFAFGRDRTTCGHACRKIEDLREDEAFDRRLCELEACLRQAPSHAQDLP

The target in the test is FLAG-GafZ (Caulobacter crescentus). The test can be described thus: co-IP; anti-FLAG magnetic beads (μMACS kit) on lysate of stationary-phase C. crescentus ΔrogA cells expressing FLAG-GafZ from its native promoter; lysis buffer 50 mM Tris-HCl pH 8, 150 mM NaCl, 1% Triton X-100, Benzonase; washes with IPP200 (200 mM NaCl, 0.1% NP-40); eluate blotted with anti-GafY, anti-ParB, anti-FLAG.

No constants are given. Whether binding was seen depends on the method and setting. Binding seen in cells or lysates may run through a third protein. A result given as binding can be weak or reduced; the word gives no strength.

For GafY (from UniProt A0A0H3C6I0), the binding entry is recorded as “binds”.

B1: ParB (protein, UniProt B8GW30 1-304)
chain: MESVVVGEPGMSEGRRGLGRGLSALLGEVDAAPAQAPGEQLGGSREAPIEILQRNPDQPRRTFREEDLEDLSNSIREKGVLQPILVRPSPDTAGEYQIVAGERRWRAAQRAGLKTVPIMVRELDDLAVLEIGIIENVQRADLNVLEEALSYKVLMEKFERTQENIAQTIGKSRSHVANTMRLLALPDEVQSYLVSGELTAGHARAIAAAADPVALAKQIIEGGLSVRETEALARKAPNLSAGKSKGGRPPRVKDTDTQALESDLSSVLGLDVSIDHRGSTGTLTITYATLEQLDDLCNRLTRGI
In the case of B1, the binding result is on record as “no binding”.
